Reference: PubChem BioAssay AID504808 (Drosophila RNAi Screening Center, 2011)
Screen: 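Genes whose loss lifts activity of an E2F-responsive reporter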 (primary screen). System: Drosophila S2 cells. Reagents: long dsRNA against Drosophila genes. Measured: 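Dual luciferase plate measurements; E2F-specific signal taken as firefly over Renilla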. Reading the numbers: E2F firefly: higher = more E2F reporter activity; Renilla normaliser: higher = more normaliser reporter signal. Rule for the call: 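Called active if the normalised E2F reporter went up by over 50%; the cutoff is arbitrary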.
The deposit covers about 21,000 reagents; this is an unselected part of those that have a named target and a result. Of all reagents, 18 (0.084%) got an active call. 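Raw counts without plate normalisation, one of two replicates; the ratio scores behind the calls were not deposited.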 Reagent sequences are not shown. The record does not give: the amount of reagent, the time to read-out.

Target gene	DRSC id	E2F firefly, rep 1	Renilla normaliser, rep 1	call
pasha	DRSC15295	2063	940	inactive
SKIP	DRSC14713	1.29e5	7442	inactive
SKIP	DRSC14714	1.45e5	7489	inactive
SKIP	DRSC15864	1.36e5	7608	inactive
SKIP	DRSC16195	76111	3570	inactive
SKIP	DRSC16196	1.41e5	7249	inactive
CG33752	DRSC05351	1.31e5	5132	inactive
tok	DRSC17087	70985	5564	inactive
CG10311	DRSC14228	1.24e5	5795	inactive
fu	DRSC20333	1.06e5	4422	inactive
Arpc5	DRSC00730	1.54e5	5438	inactive
Rrp46	DRSC15537	1.33e5	6646	inactive
Mcad	DRSC09871	81607	3497	inactive
CG14277	DRSC02380	1.30e5	5217	inactive
Gp93	DRSC15827	1642	804	inactive
Acox3	DRSC03251	1.82e5	4957	inactive
CG14535	DRSC02393	1.53e5	4723	inactive
CG34228	DRSC05300	1.30e5	4598	inactive
betaGlu	DRSC15419	1928	968	inactive
CG9705	DRSC11094	71206	3828	inactive
CG13097	DRSC02199	81076	3169	inactive
lms	DRSC06387	98495	4271	inactive
CG18596	DRSC15355	71596	3438	inactive
Dlip2	DRSC12346	1.44e5	7832	inactive
CG15439	DRSC00453	43368	3726	inactive
Lst	DRSC07146	1.40e5	4866	inactive
Ctps	DRSC09342	1.15e5	4275	inactive
Ctps	DRSC10728	69707	3213	inactive
Ctps	DRSC10729	1.51e5	7666	inactive
CG42540	DRSC08327	59860	3180	inactive
CG42540	DRSC08328	75157	3200	inactive
CG42540	DRSC08593	74372	3033	inactive
CG9525	DRSC03249	1.50e5	5179	inactive
CG17929	DRSC15291	1.27e5	6238	inactive
CenB1A	DRSC16923	1.00e5	5396	inactive
Veneno	DRSC16537	1.48e5	7250	inactive
sphe	DRSC20203	1.74e5	6320	inactive
l(3)04053	DRSC11640	69265	3430	inactive

Continued, starting with the last 4 of the part before.
Target gene	DRSC id	E2F firefly, rep 1	Renilla normaliser, rep 1	call
CenB1A	DRSC16923	1.00e5	5396	inactive
Veneno	DRSC16537	1.48e5	7250	inactive
sphe	DRSC20203	1.74e5	6320	inactive
l(3)04053	DRSC11640	69265	3430	inactive
mus81	DRSC18180	1.26e5	5444	inactive
mus81	DRSC18644	95394	5193	inactive
Eaf	DRSC05050	90994	4700	inactive
Eaf	DRSC06052	83491	3751	inactive
PIP4K	DRSC17213	62388	4958	inactive
CG1640	DRSC19750	8916	728	inactive
CG14740	DRSC14960	69296	3974	inactive
sad	DRSC16630	1.39e5	6462	inactive
RFeSP	DRSC00702	1.62e5	6270	inactive
Ppox	DRSC17033	1.10e5	5307	inactive
CG15544	DRSC15082	1.28e5	6651	inactive
CG34269	DRSC07884	1.21e5	3681	inactive
rdgBbeta	DRSC07672	1.48e5	5784	inactive
Apc	DRSC14114	1.01e5	4650	inactive
Cpr66Cb	DRSC10769	99501	3770	inactive
Ice2	DRSC14268	71944	5044	inactive
CG1773	DRSC06688	2709	224	inactive
Hn	DRSC11184	78444	3665	inactive
CG14227	DRSC19584	62084	3895	inactive
